# At least one compound was matched to its structure with a doubt left.
# System: COX-2 mRNA expression
# Assay: Effect of MAPK inhibitors on COX-2 gene expression under oxidative stress (RT-PCR)
# Type: cell-based, rat
# Conditions: MAPK inhibitor 10 µM, 30 minutes later 100 µM hydrogen peroxide or 1 mM BSO; RT-PCR 24 hours later
# Protocol: Hydrogen peroxide or BSO was added to rat annulus fibrosus cells in the presence of MAPK inhibitors, and their effects on an increase in COX-2 mRNA expression were analyzed. The MAPK inhibitors used were PD98059 (ERK inhibitor; represented by PD in Figure 3), SP600125 (JNK inhibitor; represented by SP in Figure 3), and SB203580 (p38 inhibitor; represented by SB in Figure 3) (all manufactured by Wako Pure Chemical Industries, Ltd.). These MAPK inhibitors were each added at concentration of 10 µM to a medium, and 30 minutes later, 100 µM hydrogen peroxide or 1 mM BSO was added thereto. The expression of COX-2 was analyzed by RT-PCR 24 hours later.
smiles,measurement,value
Oc1c2ccccc2c2c3c(cccc13)N=N2 [SP],expression of COX-2,significantly suppressed

# — EP3360574B1, “MEDICINAL COMPOSITION FOR AMELIORATING AND TREATING INTERVERTEBRAL DISC DEGENERATION AND LOW BACK PAIN, AND METHOD FOR SCREENING THERAPEUTIC AGENT” (Keio University, priority 2015, dated 2017)
